{"source": "PubChem BioAssay AID493246 (Drosophila RNAi Screening Center, 2011)", "screen": "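Identify essential fly genes by loss of cell viability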 (primary screen)", "cell system": "Drosophila Kc and S2R+ cells", "knock-down reagent": "long dsRNA against Drosophila genes", "measured": "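Cell number per well after knock-down, printed as raw plate values; calls were based on per-plate z-scores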", "scale": "Kc cell number and S2R+ cell number: higher = more cells remaining", "call rule": "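Counted as a hit if cell number falls by a z-score of at least 3 within its plate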", "note": "The screen tested about 21,000 reagents; this is a random part of those with a known target gene and a result. Over the whole deposit, 429 (2%) are marked active. 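Values are raw and not normalised between plates; calls rest on per-plate z-scores that were not deposited.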 A number with no mark means an inactive call. The numbers tell different reagents against one gene apart. A plus sign joins genes that one reagent is predicted to hit. Not stated in the record: the amount of reagent, the time to read-out."}
{"gene":"CG34423 + Mthfs","dsRNA no.":1,"Kc cell number, rep 1":1.56e6,"Kc cell number, rep 2":1.66e6,"S2R+ cell number, rep 1":1.36e6,"S2R+ cell number, rep 2":1.36e6}
{"gene":"CG15344 (retired record) (GeneID 31769)","dsRNA no.":1,"Kc cell number, rep 1":1.47e6,"Kc cell number, rep 2":1.48e6,"S2R+ cell number, rep 1":1.02e6,"S2R+ cell number, rep 2":1.16e6}
{"gene":"TAF1B (GeneID 41242)","dsRNA no.":1,"Kc cell number, rep 1":1.73e6,"Kc cell number, rep 2":1.83e6,"S2R+ cell number, rep 1":1.26e6,"S2R+ cell number, rep 2":1.35e6}
{"gene":"CG17193 (GeneID 50044)","dsRNA no.":1,"Kc cell number, rep 1":1.40e6,"Kc cell number, rep 2":1.38e6,"S2R+ cell number, rep 1":1.12e6,"S2R+ cell number, rep 2":1.17e6}
{"gene":"yuri (GeneID 34894)","dsRNA no.":1,"Kc cell number, rep 1":1.53e6,"Kc cell number, rep 2":1.59e6,"S2R+ cell number, rep 1":8.90e5,"S2R+ cell number, rep 2":1.07e6}
{"gene":"yuri (GeneID 34894)","dsRNA no.":2,"Kc cell number, rep 1":1.50e6,"Kc cell number, rep 2":1.65e6,"S2R+ cell number, rep 1":8.82e5,"S2R+ cell number, rep 2":1.09e6}
{"gene":"yuri (GeneID 34894)","dsRNA no.":3,"Kc cell number, rep 1":1.45e6,"Kc cell number, rep 2":1.52e6,"S2R+ cell number, rep 1":1.20e6,"S2R+ cell number, rep 2":1.30e6}
{"gene":"yuri (GeneID 34894)","dsRNA no.":4,"Kc cell number, rep 1":1.30e6,"Kc cell number, rep 2":1.43e6,"S2R+ cell number, rep 1":1.26e6,"S2R+ cell number, rep 2":1.28e6}
{"gene":"RpL24 (GeneID 34754)","dsRNA no.":1,"Kc cell number, rep 1":"1.06e6 (active)","Kc cell number, rep 2":1.17e6,"S2R+ cell number, rep 1":8.14e5,"S2R+ cell number, rep 2":8.86e5}
{"gene":"CG9121 (GeneID 33732)","dsRNA no.":1,"Kc cell number, rep 1":1.59e6,"Kc cell number, rep 2":1.49e6,"S2R+ cell number, rep 1":1.13e6,"S2R+ cell number, rep 2":1.31e6}
{"gene":"CG32945 (GeneID 318261)","dsRNA no.":1,"Kc cell number, rep 1":1.46e6,"Kc cell number, rep 2":1.53e6,"S2R+ cell number, rep 1":1.14e6,"S2R+ cell number, rep 2":1.40e6}
{"gene":"Proc-R (GeneID 31408)","dsRNA no.":1,"Kc cell number, rep 1":1.50e6,"Kc cell number, rep 2":1.46e6,"S2R+ cell number, rep 1":1.04e6,"S2R+ cell number, rep 2":1.15e6}
{"gene":"ftz-f1 (GeneID 40045)","dsRNA no.":1,"Kc cell number, rep 1":1.77e6,"Kc cell number, rep 2":1.95e6,"S2R+ cell number, rep 1":1.30e6,"S2R+ cell number, rep 2":1.34e6}
{"gene":"comm2 (GeneID 39716)","dsRNA no.":1,"Kc cell number, rep 1":1.49e6,"Kc cell number, rep 2":1.49e6,"S2R+ cell number, rep 1":1.16e6,"S2R+ cell number, rep 2":1.34e6}
{"gene":"comm2 (GeneID 39716)","dsRNA no.":2,"Kc cell number, rep 1":1.29e6,"Kc cell number, rep 2":1.54e6,"S2R+ cell number, rep 1":1.32e6,"S2R+ cell number, rep 2":1.44e6}
{"gene":"Cyp4d20 (GeneID 38311)","dsRNA no.":1,"Kc cell number, rep 1":1.55e6,"Kc cell number, rep 2":1.50e6,"S2R+ cell number, rep 1":1.01e6,"S2R+ cell number, rep 2":1.44e6}
{"gene":"DIP1 (GeneID 43981)","dsRNA no.":1,"Kc cell number, rep 1":1.60e6,"Kc cell number, rep 2":1.63e6,"S2R+ cell number, rep 1":1.18e6,"S2R+ cell number, rep 2":1.27e6}
{"gene":"CG17683 (GeneID 3355011)","dsRNA no.":1,"Kc cell number, rep 1":1.48e6,"Kc cell number, rep 2":1.44e6,"S2R+ cell number, rep 1":1.03e6,"S2R+ cell number, rep 2":1.13e6}
{"gene":"CG10104 (GeneID 36602)","dsRNA no.":1,"Kc cell number, rep 1":1.65e6,"Kc cell number, rep 2":1.58e6,"S2R+ cell number, rep 1":1.40e6,"S2R+ cell number, rep 2":1.52e6}
{"gene":"CG10300 (GeneID 42798)","dsRNA no.":1,"Kc cell number, rep 1":1.58e6,"Kc cell number, rep 2":1.52e6,"S2R+ cell number, rep 1":9.76e5,"S2R+ cell number, rep 2":1.07e6}
{"gene":"l(1)G0196 (GeneID 33137)","dsRNA no.":1,"Kc cell number, rep 1":1.34e6,"Kc cell number, rep 2":1.46e6,"S2R+ cell number, rep 1":1.09e6,"S2R+ cell number, rep 2":1.11e6}
{"gene":"l(1)G0196 (GeneID 33137)","dsRNA no.":2,"Kc cell number, rep 1":1.47e6,"Kc cell number, rep 2":1.49e6,"S2R+ cell number, rep 1":1.06e6,"S2R+ cell number, rep 2":1.17e6}
{"gene":"l(1)G0196 (GeneID 33137)","dsRNA no.":3,"Kc cell number, rep 1":1.70e6,"Kc cell number, rep 2":1.73e6,"S2R+ cell number, rep 1":1.09e6,"S2R+ cell number, rep 2":1.29e6}

Reagents listed above marked active (1):
{"gene":"RpL24 (GeneID 34754)","dsRNA no.":1,"Kc cell number, rep 1":"1.06e6 (active)","Kc cell number, rep 2":1.17e6,"S2R+ cell number, rep 1":8.14e5,"S2R+ cell number, rep 2":8.86e5}
